Data on 68 molecules can be found in PubChem BioAssay AID662 (National Center for Advancing Translational Sciences (NCATS), 2007).

Some of the results follow. Further columns of the screen follow, without active or inactive calls. Most of these compounds were active or inconclusive in the main read-out, so they are no random draw. The note in brackets gives the kind of curve behind each potency; many fits are weak.

The assay in a line: Cell signaling CRE-BLA (Fsk stim). Conditions: CHO CRE-bla reporter (cAMP response element driving beta-lactamase), forskolin EC10, beta-lactamase ratio; measured here: 460 nm blue channel. A digest of the protocol:
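Forskolin analogue NKH 477 at EC10 stimulated CRE-driven beta-lactamase in CHO cells alongside compound dilution series. Beta-lactamase was measured with CCF4, excitation 405 nm, emission ratio 460/530 nm.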
Turning to `COc1cc(CCC(=O)Nc2cc(Cl)ccc2N2CCN(C)CC2)cc(OC)c1OC`, the AC50 (usually the midpoint of the concentration-response curve, whichever way the signal moves) was 3.16 µM [falling, partial curve].

Consider `COc1ccc(-c2nc3cnc(N4CCN(C)CC4)nc3n(C3CC3)c2=O)cc1`, for which the concentration at half-maximal activity (AC50) was 10 µM [rising, partial curve].

`Cc1nc2ccccc2n1CCC(=O)Nc1cccc(F)c1`: the AC50 was 5.01 µM [falling, partial curve].

As to `Cc1nc(/N=C\N(C)C)sc1C(=O)Nc1ccccc1`, the AC50 is 1 µM [falling, partial curve].

Take `O=C(CN1CCN(c2ccc(F)cc2)CC1)Nc1cccc(C(F)(F)F)c1`: the concentration at half-maximal activity (AC50) was 0.501 µM [falling, full curve].

`O=C(C1CCN(S(=O)(=O)N2CCOCC2)CC1)N1CCc2ccccc21`: the concentration at half-maximal activity (AC50) was 1 µM [falling, partial curve].

Regarding `Cn1c(=O)n(C)c2cc(NC(=O)CSc3nnc(-c4ccccc4O)n3-c3ccccc3)ccc21`, the AC50 was 10 µM [rising, single point].

Regarding `O=c1c(-c2ccccc2)nc2cnc(N3CCNCC3)nc2n1-c1ccccc1`, the concentration at half-maximal activity (AC50) was 7.94 µM [rising, partial curve].

`Nn1c(SCC(=O)Nc2ccc3c(c2)OCO3)nnc1C1CC1`: the AC50 was 12.6 µM [falling, single point].

In the case of `COc1cc2c(C#N)c(N3CCOCC3)nc(N)c2c(N)n1`, the half-maximal activity concentration (AC50) is 10 µM [rising, partial curve].

On to `CCCC(=O)c1cc(O)c(O)cc1O`, for which the AC50 was 1 µM [falling, full curve, poor fit].

On to `COc1ccc(-c2coc3cc(O)ccc3c2=O)cc1`, for which the AC50 was 7.94 µM [rising, partial curve, poor fit].

As for `Cc1cc(C)nc(SCCCn2c(=O)[nH]c3ccccc32)n1`, the half-maximal activity concentration (AC50) was 10 µM [rising, partial curve].

As for `COC(=O)c1[nH]c2cccc(OC)c2c1NC(=O)CN1CC2(C)CC1CC(C)(C)C2` (stereo not drawn), the AC50 was 1.58 µM [rising, partial curve].

Take `Nc1ncnc2c1ncn2CCOc1ccccc1`: the half-maximal activity concentration (AC50) was 10 µM [rising, partial curve].

In the case of `CCCc1nc(N)nc2c1C(=O)CC(C)(C)C2`, the AC50 is 12.6 µM [rising, partial curve].

On to `CCNc1ncc2nc(CCc3ccccc3)c(=O)n(C3CC3)c2n1`, for which the AC50 is 10 µM [rising, partial curve].

Turning to `Cc1ccc(NC(=O)c2c(-c3c(F)cccc3Cl)noc2C)cc1F`, the concentration at half-maximal activity (AC50) was 1.26 µM [falling, full curve].

Regarding `Cc1cccc2cc3c(N)c(C(=O)N4CCOCC4)sc3nc12`, the concentration at half-maximal activity (AC50) was 10 µM [rising, partial curve].

Turning to `COC(=O)c1ccc2c(c1)N(Cc1nc(-c3cccc(C)c3)oc1C)C(=O)C1CCCN21` (stereo not drawn), the concentration at half-maximal activity (AC50) is 2.51 µM [rising, full curve].

Turning to `CC(C)NC(=O)N1CC[C@@]2(CCCN(C(=O)c3ccco3)C2)C1`, the concentration at half-maximal activity (AC50) is 12.6 µM [falling, single point].

As to `Cc1cccc(Cn2c(N(C)Cc3ccccc3)nc3c2c(=O)[nH]c(=O)n3C)c1`, the AC50 is 7.94 µM [rising, partial curve].

`CCN(CC)C(=O)c1cc2sc3ccccc3c2s1`: the AC50 is 20 µM [falling, single point].

`Cc1ccc(C)c(N2CCN(C(=O)CC3Sc4ccccc4NC3=O)CC2)c1` (stereo not drawn): the AC50 is 12.6 µM [rising, partial curve].

Take `Brc1ccccc1-c1nnc2sc(-c3ccc4c(c3)OCCO4)nn12`: the concentration at half-maximal activity (AC50) is 25.1 µM [rising, single point].

Turning to `O=c1c2cnn(-c3ccc(F)cc3)c2ncn1Cc1cccnc1`, the AC50 was 12.6 µM [rising, single point].

As for `CS(=O)(=O)Nc1cccc(-c2nc(Nc3ccc(F)cc3)c3ccccc3n2)c1`, the half-maximal activity concentration (AC50) is 20 µM [falling, single point].

In the case of `CCN1C(=O)CC(C(=O)Nc2ccc(F)cc2)SC1=Nc1cccc(OC)c1` (stereo not drawn), the AC50 is 0.0398 µM [falling, partial curve].

Consider `Cc1cc(N2CCOCC2)nc2cc(O)ccc12`, for which the AC50 was 12.6 µM [rising, single point].

In the case of `CC1(C)CC(=O)c2sc(NC(=O)CN3CCOCC3)nc2C1`, the AC50 is 12.6 µM [rising, single point].

For the molecule `CCOC(=O)c1oc2ccc(S(=O)(=O)N3CCC(C)CC3)cc2c1C`, the AC50 is 12.6 µM [rising, single point].

With `CC(C)(C)C1CCc2onc(C(=O)N3CCOCC3)c2C1` (stereo not drawn), the AC50 is 0.126 µM [rising, single point].

For `O=C(OCCN1CCOCC1)C1(c2ccccc2)CCCCC1`, the AC50 is 31.6 µM [falling, single point].

Consider `COCCn1c(=O)c(C)nc2cnc(OCc3ccccc3)nc21`, for which the concentration at half-maximal activity (AC50) is 12.6 µM [rising, partial curve].

Consider `Cc1nn(-c2ccccc2)c2nc(N)c(C#N)c(-c3ccc(F)cc3)c12`, for which the AC50 was 10 µM [rising, partial curve].

Consider `COc1ccc(CNc2cc(-c3cccnc3)ncn2)c(OC)c1`, for which the concentration at half-maximal activity (AC50) was 7.94 µM [rising, partial curve].

Consider `CC1CN(C(=O)Cc2ccc(-c3ccccc3)cc2)CC(C)O1` (stereo not drawn), for which the concentration at half-maximal activity (AC50) was 0.501 µM [falling, full curve, poor fit].

Take `COc1ccc(OC)c(-c2c[n+](=O)c3c(n2[O-])CCCC3)c1`: the AC50 is 1.26 µM [falling, partial curve].

For `CCOC(=O)C1C(=O)NC(N2CCN(c3ccccc3)CC2)=NC1c1ccco1` (stereo not drawn), the half-maximal activity concentration (AC50) is 6.31 µM [falling, partial curve, poor fit].

For `Cc1ccc2c(c1)c1ncnc(N3CCOCC3)c1n2C`, the AC50 was 3.16 µM [rising, full curve].

In the case of `O=C(NCCc1c[nH]c2ccccc12)C1CCN(c2nnc(N3CCCC3=O)s2)CC1`, the AC50 is 0.00398 µM [falling, full curve, poor fit].

`COCCNC(=O)COc1cc(=O)n(C)c2ccccc12`: the AC50 is 7.94 µM [rising, single point].

On to `COCCn1c(=O)c(-c2cccs2)nc2cnc(N3CCNCC3)nc21`, for which the AC50 was 3.16 µM [rising, full curve].

As to `Cn1c(SCC(=O)Nc2cccc(NC(=O)c3cccs3)c2)nnc1-c1ccncc1`, the AC50 is 15.8 µM [falling, single point].

Take `CC(C)(C)n1nnnc1C(c1cccs1)N(Cc1ccccc1)Cc1ccco1` (stereo not drawn): the AC50 was 12.6 µM [falling, single point].

As for `COc1c(C)cc(Br)cc1C(=O)Nc1cccc(-c2nc3ncccc3o2)c1`, the AC50 is 5.01 µM [rising, single point].

Regarding `Cn1c(/C(C#N)=C(\O)c2ccc(S(=O)(=O)N3CCCCC3)cc2)nc2ccccc21`, the half-maximal activity concentration (AC50) was 0.1 µM [rising, full curve].

Regarding `COc1ccccc1N(CC(=O)Nc1ccccc1C(=O)NC(C)C)S(C)(=O)=O`, the half-maximal activity concentration (AC50) was 0.0126 µM [falling, partial curve].

Consider `COc1ccc(C(=O)Nc2ccc(Cl)cn2)cc1Cl`, for which the concentration at half-maximal activity (AC50) is 1.58 µM [rising, partial curve, poor fit].

On to `c1cncc(-c2nccc(NCc3cccs3)n2)c1`, for which the AC50 is 1.58 µM [rising, full curve].

Turning to `Cc1cccc(-n2nnc(C(=O)Nc3ccc(F)cc3)c2N)c1`, the half-maximal activity concentration (AC50) is 0.794 µM [rising, partial curve].

For the molecule `O=C(Nc1ccc(S(=O)(=O)N2CCc3ccccc3C2)cc1)C1CCCO1` (stereo not drawn), the AC50 is 1 µM [falling, single point].

For the molecule `CCOc1ccccc1CN1C(=O)c2ccccc2C1C(=O)NCC1CCCO1` (stereo not drawn), the concentration at half-maximal activity (AC50) is 0.316 µM [falling, partial curve].

With `CC(NC(=O)CSc1ncnc2nc[nH]c12)c1ccccc1` (stereo not drawn), the concentration at half-maximal activity (AC50) was 0.794 µM [falling, full curve].

In the case of `CS(=O)(=O)N1CCC(C(=O)NCCN2CCN(Cc3ccccc3)CC2)CC1`, the AC50 was 25.1 µM [rising, single point].

Turning to `O=c1c(-c2cc(F)cc(F)c2)nc2cnc(N3CCNCC3)nc2n1C1CC1`, the concentration at half-maximal activity (AC50) is 3.98 µM [rising, partial curve].

For the molecule `Nc1nc(N)c2sc3nc4c(cc3c2n1)CCC4`, the concentration at half-maximal activity (AC50) was 10 µM [rising, partial curve].

As to `COCCNC(C)C(=O)C12CC3CC(CC(C3)C1)C2` (stereo not drawn), the concentration at half-maximal activity (AC50) was 20 µM [rising, single point].

Regarding `COC(=O)[C@@]1(Cc2ccc(OC)cc2)[C@H]2c3cc(C(=O)N4CCCC4)n(CCc4ccc(O)c(O)c4)c3C[C@H]2CN1C(=O)c1ccccc1`, the AC50 is 12.6 µM [rising, partial curve].

With `O=c1oc(-c2cccs2)nc2sc3c(c12)CCCCC3`, the AC50 was 10 µM [rising, partial curve].

`c1coc(-c2nc(-c3ccncc3)no2)c1`: the AC50 is 1 µM [rising, full curve, poor fit].

With `CCC(NS(=O)(=O)c1ccc(C)cc1)C(=O)N1CCC2(O)CCCCC2C1` (stereo not drawn), the half-maximal activity concentration (AC50) was 3.98 µM [falling, partial curve].

Consider `Cc1cccc2nc(Cn3c(=O)n(CCC(=O)NCc4ccco4)c(=O)c4ccccc43)cc(=O)n12`, for which the half-maximal activity concentration (AC50) was 0.316 µM [falling, partial curve].

Turning to `O=C(c1ccncc1)N1CCC2(CC1)CN(Cc1cc(C(F)(F)F)cc(C(F)(F)F)c1)C2`, the concentration at half-maximal activity (AC50) is 0.126 µM [falling, single point].

`COc1cc(OC)c2cc(-c3ccncc3)cnc2c1`: the AC50 is 3.16 µM [rising, full curve].

Regarding `c1ccc(-n2ncc3c(N4CCN(c5ccccn5)CC4)nc(N4CCCCC4)nc32)cc1`, the concentration at half-maximal activity (AC50) is 2.51 µM [falling, partial curve, poor fit].

With `CCn1c(=O)c(C(=O)CN2CCOCC2)c(N)n(Cc2ccccc2)c1=O`, the AC50 is 25.1 µM [falling, single point].

As to `CCOC(=O)c1c(C)n(C)c2ccc(OCC(O)CN3CCN(C)CC3)cc12` (stereo not drawn), the half-maximal activity concentration (AC50) is 12.6 µM [rising, partial curve].
